## Results of single-concentration screens

Amino acid sequences for entries named in this document (tags omitted).
UniProt I6X8D2, whole entry: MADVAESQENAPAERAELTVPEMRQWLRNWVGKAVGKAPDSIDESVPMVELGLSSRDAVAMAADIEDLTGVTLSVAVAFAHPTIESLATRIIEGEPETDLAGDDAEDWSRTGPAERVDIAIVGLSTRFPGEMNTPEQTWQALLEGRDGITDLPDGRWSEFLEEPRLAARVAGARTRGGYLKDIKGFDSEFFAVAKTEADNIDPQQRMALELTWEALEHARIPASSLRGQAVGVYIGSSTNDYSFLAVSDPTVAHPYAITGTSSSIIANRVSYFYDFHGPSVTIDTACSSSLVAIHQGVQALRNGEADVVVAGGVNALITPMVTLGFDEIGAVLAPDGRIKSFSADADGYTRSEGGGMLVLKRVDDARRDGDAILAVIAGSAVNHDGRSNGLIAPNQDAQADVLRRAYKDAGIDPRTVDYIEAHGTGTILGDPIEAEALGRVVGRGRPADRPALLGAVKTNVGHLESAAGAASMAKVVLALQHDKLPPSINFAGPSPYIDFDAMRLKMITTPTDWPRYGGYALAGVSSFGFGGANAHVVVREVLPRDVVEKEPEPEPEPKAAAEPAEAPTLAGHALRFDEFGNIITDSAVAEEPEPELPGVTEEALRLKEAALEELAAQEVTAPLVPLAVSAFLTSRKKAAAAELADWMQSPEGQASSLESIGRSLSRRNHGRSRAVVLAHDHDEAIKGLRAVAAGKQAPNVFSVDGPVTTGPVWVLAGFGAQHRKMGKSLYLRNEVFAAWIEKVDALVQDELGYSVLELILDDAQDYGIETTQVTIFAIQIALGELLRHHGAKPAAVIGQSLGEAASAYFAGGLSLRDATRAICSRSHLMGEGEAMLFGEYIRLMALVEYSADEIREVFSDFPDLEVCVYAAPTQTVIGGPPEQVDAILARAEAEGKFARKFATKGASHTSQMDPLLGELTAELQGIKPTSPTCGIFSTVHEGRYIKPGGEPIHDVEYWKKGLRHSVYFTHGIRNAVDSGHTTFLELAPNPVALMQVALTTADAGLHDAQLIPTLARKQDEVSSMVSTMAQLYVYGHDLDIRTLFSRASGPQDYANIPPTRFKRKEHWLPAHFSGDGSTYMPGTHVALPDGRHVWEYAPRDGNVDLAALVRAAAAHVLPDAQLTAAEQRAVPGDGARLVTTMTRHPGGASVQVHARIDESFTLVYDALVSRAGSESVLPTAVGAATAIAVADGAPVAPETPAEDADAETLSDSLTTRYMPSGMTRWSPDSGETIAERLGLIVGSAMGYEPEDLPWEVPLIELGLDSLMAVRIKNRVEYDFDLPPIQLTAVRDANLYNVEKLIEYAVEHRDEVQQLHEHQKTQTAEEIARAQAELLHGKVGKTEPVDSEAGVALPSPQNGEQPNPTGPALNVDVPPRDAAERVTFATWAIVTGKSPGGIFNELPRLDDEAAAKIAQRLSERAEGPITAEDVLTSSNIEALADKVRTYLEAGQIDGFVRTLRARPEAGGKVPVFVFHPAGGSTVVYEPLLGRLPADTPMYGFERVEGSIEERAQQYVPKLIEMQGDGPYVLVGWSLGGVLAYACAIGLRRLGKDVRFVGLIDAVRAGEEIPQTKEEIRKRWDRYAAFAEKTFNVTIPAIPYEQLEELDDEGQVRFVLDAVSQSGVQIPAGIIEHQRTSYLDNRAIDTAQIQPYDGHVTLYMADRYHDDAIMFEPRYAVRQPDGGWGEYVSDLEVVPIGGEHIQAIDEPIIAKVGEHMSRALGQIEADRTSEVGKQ
UniProt P9WNZ1, whole entry: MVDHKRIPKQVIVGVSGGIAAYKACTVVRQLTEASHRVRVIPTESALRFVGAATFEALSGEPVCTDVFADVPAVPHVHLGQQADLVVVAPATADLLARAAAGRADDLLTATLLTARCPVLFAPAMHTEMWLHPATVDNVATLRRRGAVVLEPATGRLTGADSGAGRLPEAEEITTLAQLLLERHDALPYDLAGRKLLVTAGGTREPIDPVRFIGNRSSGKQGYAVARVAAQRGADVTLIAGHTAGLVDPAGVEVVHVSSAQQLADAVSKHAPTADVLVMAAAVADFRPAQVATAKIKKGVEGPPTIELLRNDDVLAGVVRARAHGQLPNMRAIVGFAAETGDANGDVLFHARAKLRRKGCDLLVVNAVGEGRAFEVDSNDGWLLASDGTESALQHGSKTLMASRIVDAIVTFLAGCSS
UniProt P9WFT3, whole entry: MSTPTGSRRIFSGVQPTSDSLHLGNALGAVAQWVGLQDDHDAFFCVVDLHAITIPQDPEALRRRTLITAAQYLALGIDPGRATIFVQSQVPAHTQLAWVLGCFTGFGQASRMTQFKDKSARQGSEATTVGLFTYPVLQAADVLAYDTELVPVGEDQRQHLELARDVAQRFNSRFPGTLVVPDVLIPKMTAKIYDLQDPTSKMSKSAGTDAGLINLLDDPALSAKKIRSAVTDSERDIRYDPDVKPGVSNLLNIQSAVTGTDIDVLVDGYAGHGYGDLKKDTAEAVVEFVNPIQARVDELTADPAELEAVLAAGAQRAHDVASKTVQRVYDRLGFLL

A: 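Enzyme assay of the thioesterase domain of polyketide synthase 13; the read-out is not stated. Target: Polyketide synthase Pks13, Mycobacterium tuberculosis (UniProt I6X8D2). Concentration: 30 µM. Higher reads as stronger inhibition (inferred from which compounds were picked for retests). Size under these conditions: about 67,000 compounds, about 300 of them at 50% or above in at least one test.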
B: 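Coenzyme A biosynthesis protein CoaBC, Mycobacterium tuberculosis (UniProt P9WNZ1). Enzyme assay of CoaBC with a phosphate dye (Biomol Green) read at 650 nm. Concentration: 30 µM. Direction is inferred from only a few compounds that gave an IC50; most scored high, so higher reads as stronger inhibition. Most strong results did not repeat in a second test. About 67,000 compounds were tested under these conditions; 0.06% (about 40) showed 50% or more at least once.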
C: 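Cell assay of Leishmania donovani living inside macrophages; the read-out is not stated. Compounds at 30 µM. The record gives no direction; compounds that gave an IC50 in retests scored well above the rest, so higher reads as stronger inhibition. About 69,000 compounds were tested under these conditions; 1.5% (about 1,000) showed 50% or more at least once.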
D: 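Enzyme assay of tryptophanyl-tRNA synthetase; the read-out is not stated. Target: Tryptophan-tRNA ligase, Mycobacterium tuberculosis (UniProt P9WFT3). Concentration: 10 µM. Direction is not recorded; retested compounds ran higher, which suggests that high means inhibition. Size under these conditions: about 65,000 compounds, about 64 of them at 50% or above in at least one test.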

Values are the deposited “Percent Effect”, in %. How 0% and 100% were set is not recorded. Most values in the screen are low, and negative values occur. This is an unselected part of the compounds tested.

COc1ccc2[nH]nc(CN3CCC(C(C)N4CCCC4)CC3)c2c1 (configuration not stated) read A: -21.85%; B: -5.144%; C: 26.14%; D: -6.338%. Result for CCc1nc(C)c([C@H]2CN(C)C[C@@H]2C(=O)Nc2ccc3[nH]ncc3c2)[nH]1 was A: -21.03%; B: -8.481%; C: 12.15%; D: 8.218%. For O=S(=O)(NC[C@H]1C[C@@H]2CCN1C[C@@H]2CN1CCCC1)c1ccc(Cl)cc1 the result was A: 2.527%; B: -26.86%; D: 5.196%. With Cc1nnc2n1CCN(C(=O)c1cnc3c(cnn3C(C)C)c1)C2 the screen gave A: -16.48%; B: -2.484%; C: 6.118%; D: -1.486%. CC1(C)CCN1C(=O)c1cc(F)cc2[nH]cnc12 gave A: -8.648%; B: 0.1215%; C: 28.3%; D: 5.466%. Result for CCC1(c2ccc(NS(=O)(=O)N(C)C)cc2)CCC(=O)NC1=O (configuration not stated) was A: 14.84%; B: 0.8589%; C: -10.95%. Result for Cc1ccc2nc(C(=O)N3CC(c4cccnc4)C3)cn2c1 was A: -7.501%; B: 6.446%; C: 21.39%; D: 1.028%. Result for O=S(=O)(NCCN1CCOCC1)c1cncc(Cl)c1 was A: 2.944%; C: -17.46%; D: -3.715%.

For Fc1ccc(CN2CCC(F)(F)C3(CCN(c4cnccn4)C3)C2)cc1 (configuration not stated) the result was A: 30.92%; B: 2.767%; D: 11.7%. With Cc1ccc(NC(=O)NCCCn2nc3ccccn3c2=O)cc1 the screen gave A: 7.229%; B: 4.075%; C: 11.14%; D: -3.955%. For O=C(O)C(F)(F)F.O=C([C@H]1CCCO1)N1CC[C@H](O)[C@@H]1Cc1ccncc1 the result was C: 8.201%. For [H][C@@]12CS(=O)(=O)C[C@]1([H])N(S(=O)(=O)c1ccccc1OC)CCN2CCC the result was C: 6.803%. With Cn1ncc2c(=O)[nH]c(CN3CCCC3CC3CCCCC3)nc21 (configuration not stated) the screen gave A: -3.576%; B: -21.87%; C: 35.65%; D: -2.632%. Cc1c(CN2CCCC(C(=O)c3ccccc3)C2)cc(C#N)n1C (configuration not stated) read A: -17.63%; B: 1.085%; C: -3.553%; D: 3.561%. For O=S(=O)(CCN1CCCCC1Cn1cccn1)c1ccccc1 (configuration not stated) the result was A: -4.283%; B: 5.206%; C: 5.597%; D: 1.711%. With CCCN1CCC(N(Cc2ncc(C)o2)C(C)=O)C1 (configuration not stated) the screen gave A: -8.652%; B: -15.42%; C: 18.51%; D: 2.012%.

With CC(C)c1noc(CN2CCN(C(=O)c3ccc(F)cc3)CC2)n1 the screen gave A: 9.021%; B: -0.2193%; C: 4.739%; D: 3.488%. For O=C(NC1CCN(c2cc(-n3ccnc3)ncn2)CC1)c1ccncc1 the result was A: 4.958%; B: 4.716%; C: 15.7%; D: 1.286%. Cc1ccc(C)c(-n2ncc(C(=O)N(C)CCc3ccccn3)c2N)c1 gave A: 2.671%; B: 3.641%; C: 11.43%. Result for NC(=O)c1cc(-n2cc(-c3cccc(C(=O)O)c3)cn2)cs1 was A: -18.37%; B: 8.065%; C: 5.835%; D: -9.044%. With Cc1cc(NC(=O)NC2CCN(C(C)C)CC2)c2ncccc2c1 the screen gave A: -5.005%; B: 2.945%; C: 38.52%; D: -1.414%. CNC(=O)CC1CCN(C(=O)NCc2coc3ccccc23)CC1 gave A: 5.842%; B: 17.23%; C: 8.633%; D: 15.61%. With O=C(O)C(F)(F)F.O=C(O)C(F)(F)F.[H][C@]12C[C@@H](C(=O)N(C)Cc3ccccn3)CO[C@@]1([H])CCN(CC1CC1)C2 the screen gave C: 67.47%. With COCCC1COC2(CCN(C(=O)c3ccncc3)CC2)C1 (configuration not stated) the screen gave A: -29.4%; B: 5.75%; D: 13.76%.

Result for CN(C)[C@@H]1CN(C(=O)c2cc3ccc(F)cc3[nH]2)C[C@H]1O was A: 3.656%; B: -3.942%; C: 23.61%; D: -10.5%.

From ChEMBL document CHEMBL3988442, “University of Dundee, Small-Polar-MMV Screening Library” (2021).